Settings: 1 g particle-loaden xylitol or same amount of commercial naproxen; USP <1092> conditions; UV/Vis at 230 nm; FIG. 6

COc1ccc2cc([C@H](C)C(=O)O)ccc2c1 [unprocessed naproxen, naproxen]
time until the entire dose is released (dissolution): 300 s

From patent publication US12296348B2, “Electrostatic precipitator” (TECHNISCHE UNIVERSITÄT DORTMUND, priority 2019, dated 2025)
